Test results: patent US9023998B2, “Near infrared fluorogen and fluorescent activating proteins for in vivo imaging and live-cell biosensing” (Carnegie Mellon University, priority 2013, dated 2015)

System: HCT116 cells transduced by the dL9.2-delivering lentivirus
Assay: Fluorescence detection of FAP-expressing cells in the intraperitoneal cavity after i.v. fluorogen
Format: in vivo, nude mice
Conditions: 7×10^6 cells i.p.; fluorogen i.v. 100 μL of 4.0 μM; imaged after 20 hours

CN(C)c1ccc(/C=C/C(=C2C=CC(=[N+](C)C)C=C2)c2ccc(N(C)C)cc2)cc1 [SKC602, (E)-N-(4-(1,3-bis(4-(dimethylamino)phenyl)allylidene)cyclohexa-2,5-dien-1-ylidene)-N-methylmethanaminium]
Labeling of intraperitoneally injected FAP-expressing cells after intravenous fluorogen: can propagate through the body, activating at sites of interest
